The list is a part of this screen's results and no random one: it is rich in T/C values a quarter to a half above the control, in often repeated tests (any T/C) and in doses without a T/C. Other doses and runs of a compound stand elsewhere. T/C is the treated group as % of the vehicle group. Some entries give survivors of the animals treated and no T/C: the source holds a T/C of zero for them, seemingly a mark for toxic or unscored doses. Some doses without a T/C left all or most animals alive at the check, yet need not have been tolerated: survival well below the control is almost never listed, so the zero probably covers shortened survival too. Counts of survivors are from the toxicity check (mostly the fifth day) where no day follows; animals may have died later. Schedule codes are those of the source, taken here to give the interval after Q, in days (D) or hours (H), and the number of doses after X. For survival time, the PubChem record calls one and a half times the control and up active, and a quarter to a half above the control has no call in these data; cut-offs in other NCI protocols can differ. Some doses were run more than once; the values are given in rising order. Some T/C values are followed by the survivors on the day toxicity was checked, most often the fifth; without a count, all were alive then.
Test system: BDF1 mice, intracerebral L1210 leukemia, survival T/C
Experiment: NCI In Vivo Anticancer Drug Screen. Data for tumor model L1210 Leukemia (intracerebral) in B6D2F1 (BDF1) mice
Conditions: T/C endpoint: mean survival time, higher T/C = longer survival
Summary of the method: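 Survival measured in treated and vehicle-control tumour-bearing mice; value = T/C.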

[1] = dose: 30.0 mg/kg/injection, schedule: Q01DX001 (ip), vehicle: other

CCOC(=O)C1CCC(NC(=O)N(CCCl)N=O)CC1 (stereo not given)
T/C (dose: 8.0 mg/kg/injection, schedule: Q01DX001 (ip), vehicle: other): 132 % of control | T/C (dose: 16.0 mg/kg/injection, schedule: Q01DX001 (ip), vehicle: other): 125 and 131 % of control | T/C (dose: 20.0 mg/kg/injection, schedule: Q01DX001 (ip), vehicle: other): 137 % of control | T/C (dose: 21.0 mg/kg/injection, schedule: Q01DX001 (ip), vehicle: other): 132 and 139 % of control | T/C [1]: 149 % of control | survivor count (dose: 100.0 mg/kg/injection, schedule: Q01DX001 (ip), vehicle: other): 9 of 10

O=NN(CCF)C(=O)NC1CSCSC1
T/C (dose: 15.0 mg/kg/injection, schedule: Q01DX001 (ip), vehicle: other): 144 % of control | T/C (dose: 18.0 mg/kg/injection, schedule: Q01DX001 (ip), vehicle: other): 137 % of control | survivor count (dose: 61.5 mg/kg/injection, schedule: Q01DX001 (ip), vehicle: other): 6 of 10

COC1=C(N2CC2)C(=O)C(OC)=C(N2CC2)C1=O
T/C (dose: 2.0 mg/kg/injection, schedule: Q01DX009 (ip), vehicle: saline): 133 % of control | survivor count (dose: 4.0 mg/kg/injection, schedule: Q01DX009 (ip), vehicle: saline): 5 of 6

O=P(NC12CC3CC(CC(C3)C1)C2)(N1CC1)N1CC1
T/C (dose: 13.3 mg/kg/injection, schedule: Q04DX003 (ip), vehicle: Klucel (hydroxypropylcellulose) (HPC)): 131 % of control | T/C (dose: 20.0 mg/kg/injection, schedule: Q04DX003 (ip), vehicle: Klucel (hydroxypropylcellulose) (HPC)): 131 % of control | T/C (dose: 27.0 mg/kg/injection, schedule: Q01DX001 (ip), vehicle: Klucel (hydroxypropylcellulose) (HPC)): 129 % of control | survivor count (dose: 40.0 mg/kg/injection, schedule: Q01DX001 (ip), vehicle: Klucel (hydroxypropylcellulose) (HPC)): 10 of 10

OC(CBr)C(O)C(O)C(O)CBr (stereo not given)
T/C (dose: 200.0 mg/kg/injection, schedule: Q01DX009 (ip), vehicle: steroid suspending solution): 128 % of control | survivor count (dose: 400.0 mg/kg/injection, schedule: Q01DX009 (ip), vehicle: steroid suspending solution): 1 of 8

O=NN(CCCl)C(=O)NC1Cc2ccccc2C1
T/C (dose: 125.0 mg/kg/injection, schedule: Q01DX001 (ip), vehicle: other): 127 % of control

S=C=NCCc1ccccc1
survivor count (dose: 100.0 mg/kg/injection, schedule: Q01DX009 (ip), vehicle: saline with Tween-80): 4 of 6

O=C1C=C(N2CC2)C(=O)C(N2CC2)=C1N1CC1
T/C (dose: 0.1 mg/kg/injection, schedule: Q01DX009 (ip), vehicle: saline): 126 % of control | survivor count (dose: 0.2 mg/kg/injection, schedule: Q01DX009 (ip), vehicle: saline): 6 of 6

Nc1ncn(C2OC(CO)C(O)C2O)c(=O)n1 (stereo not given)
T/C (dose: 40.0 mg/kg/injection, schedule: Q01DX001 (ip), vehicle: saline): 132 % of control [9 of 10 alive] | T/C (dose: 55.0 mg/kg/injection, schedule: Q01DX001 (ip), vehicle: saline): 135 % of control | T/C (dose: 70.0 mg/kg/injection, schedule: Q01DX001 (ip), vehicle: saline): 139 % of control [9 of 10 alive] | T/C (dose: 85.0 mg/kg/injection, schedule: Q01DX001 (ip), vehicle: saline): 126 % of control | T/C (dose: 100.0 mg/kg/injection, schedule: Q01DX001 (ip), vehicle: saline): 141 % of control [9 of 10 alive]

CC1CCC(NC(=O)N(CCF)N=O)CC1 (stereo not given)
T/C [1]: 140 % of control

C=CCNC(=O)NCC=C
survivor count (dose: 400.0 mg/kg/injection, schedule: Q01DX009 (ip), vehicle: saline): 3 of 8

Nc1nc2n[nH]nc2c(=O)[nH]1
T/C (dose: 39.0 mg/kg/injection, schedule: Q01DX015 (ip), vehicle: water): 125 % of control | T/C (dose: 61.0 mg/kg/injection, schedule: Q01DX015 (ip), vehicle: water): 139 % of control [8 of 9 alive]
